# Reference: PubChem BioAssay AID1159578 (Peter MacCallum Cancer Centre, 2015)
# Aim: 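Knock-downs that alter how fast lymphatic endothelial cells migrate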 (primary screen)
# Cells: human lymphatic endothelial cells
# Reagent: siRNA pool against human genes, 40 nM
# Time to read-out: 48 h after transfection
# Measured: 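High-content imaging of dye-stained cells in a scratch assay measures filled wound area and nuclei per well; duplicate means given as ratio to mock and robust z-score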
# Reading the numbers: migration robust z-score: higher = faster migration into the scratch; nuclei per well: higher = more cells in the well
# Call rule: 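Migration changed when robust z exceeds 2 or falls below -2 and mean nuclei number is at least 3300; otherwise not called changed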
# Meaning of the calls: active = migration changed; inactive = no migration change, or too few cells
# The whole screen tested about 18,000 reagents; this is a random part of them. About 1,030 of them (5.7%) were called active. 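Inactive calls also include pools with fewer than 3300 nuclei, whose migration was not assessed.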 The raw values are shown without normalisation. Entries without a mark were called inactive. Not all columns of the deposit are shown.
gene,migration robust z-score,migration class with cell-count check,"nuclei per well, duplicate mean"
SLC25A15,-2.41,under 3300 nuclei; migration not judged,3290
GPATCH8,-0.94,migration z between -2 and 2; enough cells,6131
CABS1,-0.68,migration z between -2 and 2; enough cells,5613
CCZ1B,0.19,migration z between -2 and 2; enough cells,5178
FCSK,-1.4,migration z between -2 and 2; enough cells,5651
APEH,0.21,migration z between -2 and 2; enough cells,5322
TCHP,-0.37,migration z between -2 and 2; enough cells,6236
LCAT,-0.34,migration z between -2 and 2; enough cells,6038
PPP1R26,-0.83,migration z between -2 and 2; enough cells,4233
CYB5D2,-1.59,migration z between -2 and 2; enough cells,3890
CES1,0.34,migration z between -2 and 2; enough cells,5314
SPDYE3,-2.38 (active),migration z below -2; enough cells,3718
ASH1L,-1.94,migration z between -2 and 2; enough cells,4557
BLNK,-1.04,migration z between -2 and 2; enough cells,6016
ZFP3,1.65,migration z between -2 and 2; enough cells,6380
LOC653978 (retired record),0.6,migration z between -2 and 2; enough cells,6186
RBM46,-0.89,migration z between -2 and 2; enough cells,5044
WNT7B,-1.77,migration z between -2 and 2; enough cells,3466
ADGRF4,1.2,migration z between -2 and 2; enough cells,4542
USF1,-0.83,migration z between -2 and 2; enough cells,5781
AIF1,-0.54,migration z between -2 and 2; enough cells,5624
SHISA6,0.27,migration z between -2 and 2; enough cells,4870
OR5C1,-0.32,migration z between -2 and 2; enough cells,5175
CNBP,-0.28,migration z between -2 and 2; enough cells,5190
TYRO3,-3.25 (active),migration z below -2; enough cells,3636
ZC3H12A,0.08,migration z between -2 and 2; enough cells,4944
TNFRSF13B,-4.21,under 3300 nuclei; migration not judged,2509
MBOAT7,-1.2,migration z between -2 and 2; enough cells,4896
PODXL,1.06,migration z between -2 and 2; enough cells,6918
TSPAN4,-0.7,migration z between -2 and 2; enough cells,5265
NDUFV2,0.39,migration z between -2 and 2; enough cells,4710
CDH10,-1.49,migration z between -2 and 2; enough cells,6378
MUCL1,0.12,migration z between -2 and 2; enough cells,5826
ZC3H12B,0,migration z between -2 and 2; enough cells,6768
CLCN5,0.34,migration z between -2 and 2; enough cells,5774
ADGRE3,0.39,migration z between -2 and 2; enough cells,5051
VDAC3,1.3,migration z between -2 and 2; enough cells,5604
HDGFL1,1.56,migration z between -2 and 2; enough cells,6152
ZYX,-1.12,migration z between -2 and 2; enough cells,4735
SOX6,0.23,migration z between -2 and 2; enough cells,5116
HMCN1,1.03,migration z between -2 and 2; enough cells,5152
TNS3,-0.64,migration z between -2 and 2; enough cells,5714
YWHAE,0.52,migration z between -2 and 2; enough cells,5048
PPP2R2C,0.18,migration z between -2 and 2; enough cells,7042
SPON2,-1.19,migration z between -2 and 2; enough cells,5510
ZNF518B,-1.54,migration z between -2 and 2; enough cells,4234
SMS,-0.42,migration z between -2 and 2; enough cells,5119
C6orf15,-1.28,migration z between -2 and 2; enough cells,5795
PPP1R21,-0.26,migration z between -2 and 2; enough cells,6312
MAML3,-0.29,migration z between -2 and 2; enough cells,4360
PPP1R8,-0.57,migration z between -2 and 2; enough cells,4606
OR1L6,-1.44,migration z between -2 and 2; enough cells,5414
EHD1,0.41,migration z between -2 and 2; enough cells,4872
DNM1L,-2.46 (active),migration z below -2; enough cells,4011
ATP13A2,0.49,migration z between -2 and 2; enough cells,6815
KDM6B,-0.05,migration z between -2 and 2; enough cells,5632
LDHB,0.18,under 3300 nuclei; migration not judged,3126

Part of the list above, set out differently.
gene | migration robust z-score | migration class with cell-count check | nuclei per well, duplicate mean
CNBP | -0.28 | migration z between -2 and 2; enough cells | 5190
TYRO3 | -3.25 (active) | migration z below -2; enough cells | 3636
ZC3H12A | 0.08 | migration z between -2 and 2; enough cells | 4944
TNFRSF13B | -4.21 | under 3300 nuclei; migration not judged | 2509
